In all, about 200,000 compounds went through this assay and about 25 (0.01%) were called active. Inconclusive results, whose numbers are uncertain, are shown with a selection of clear calls. Calls follow the shape of the dose curve; as a rule, active = well fitted inhibition curve with a large enough effect in the signal ratio, with a control signal flat (not every such curve was filed as active); inconclusive = small, poorly fitted or top-dose-only effect, or effect the other way, or a change in a side signal; inactive = flat fitted curve, though single readings scatter; the % refers to the signal ratio. Potencies of inconclusive entries are doubtful fits and often do not repeat.
Experiment: qHTS Assay for Modulators of Lamin A Splicing
Details: HeLa LMNA splicing GFP/RFP minigene ratio, 48 h; ratio change, negative = inhibition: at 46.1 µM (top of the series) unless noted
In short: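 S3 HeLa stable clones carrying a lamin A-EGFP splicing minigene plus DsRed2 were seeded at 600 cells/well in Opti-MEM with 2% FBS, pin-dosed and incubated 48 h at 37°C. Acumen cytometry (488 nm) gave the GFP/RFP total-intensity ratio.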
% is scaled to controls: 0 for no effect and ±100 for the full control effect; potency is read from the fitted curve at half-maximal effect.

Structure (SMILES) | ratio change, negative = inhibition | Potency
COc1ccc2nc(NC(=O)CSc3nc(C)cc(=O)[nH]3)sc2c1 | inactive | 
CCN(CC)CCNC(=O)c1nn(C)c2c1CS(=O)(=O)c1ccccc1-2 | inconclusive: -39.7% [at 46 µM] | 
Cc1cccc2cc(CNC3CCCC3)c(Cl)nc12 | inactive | 
Cc1cc(C)cc(NC(=S)NCCN(C2CCCCC2)C2CCCC2)c1 | inactive | 
CNC(CC(=O)c1ccc([N+](=O)[O-])cc1)C(Cl)(Cl)Cl (stereo unspecified) | inconclusive: -7.43% | 
COC(=O)c1scc(-c2ccc(C)cc2)c1S(=O)(=O)N1CCN(c2ccc(OC)cc2)CC1 | inconclusive: -10.6% [at 46 µM] | 
O=C(N/N=C/C(Cl)=C/c1ccccc1)c1cnccn1 | inconclusive: 0.111% | 
Cc1ccccc1NC(=O)c1c(C)nn(-c2ccccc2)c1Cl | inconclusive: -12.8% | 
COc1cccc(-n2nnc3c(=O)n(Cc4cccc(F)c4)cnc32)c1 | inactive | 
COc1ccc(N2CC(NC(=O)CCc3ccccc3)CC2=O)cc1OC (stereo unspecified) | inconclusive: 31.7% [at 46 µM] | 
O=C(NN=C1CCCCCCCCCCC1)c1cccc(S(=O)(=O)N2CCOCC2)c1 | inconclusive: 6.79% | 
O=C(O)c1ccc(Nc2nc(-c3cc4ccccc4oc3=O)cs2)cc1O | inconclusive: -38.2% [at 46 µM] | 
COc1ccc(NC(=O)c2sc3nc4n(c(=O)c3c2C)CCC4)cc1Cl | inconclusive: 13.6% [at 46 µM] | 
Cc1ccc2scc(N3CCN(c4ccc(F)cc4)CC3)c(=O)c2c1 | inconclusive: -39.1% [at 46 µM] | 
COc1ccccc1C(=O)NC(=S)/C=C1/N(C)c2ccccc2C1(C)C | inconclusive: -16.2% | 
O=C(NCc1ccc(Cl)cc1)c1cnc2sc(N3CCCC3)nn2c1=O | inconclusive: 21.8% [at 46 µM] | 
Cc1cccc(Nc2ccccc2C(=O)NCc2ccco2)c1C |  | inconclusive: 20 µM [cytotoxic, partial curve]
CCOc1ccc(C(c2c(O)cc(C)n(CCOC)c2=O)N2CCC(C)CC2)cc1 (stereo unspecified) | inconclusive: -7.33% [at 46 µM] | 
CCn1c(SCC(=O)N/N=C/C=C/c2ccco2)nnc1-c1ccccc1 | inconclusive: 3.22% | 
Cc1ccc(Cl)cc1NC(=S)N(Cc1ccccc1)Cc1cccnc1 | inconclusive: -22.6% [at 46 µM] | 
COc1ccc(N=C2NN=C(c3c(C)[nH]c4ccccc34)CS2)cc1 | inconclusive: -14.2% | 

Structure (SMILES) | ratio change, negative = inhibition | Potency
COc1ccc(NC(=O)CN(Cc2ccccc2)S(C)(=O)=O)cc1OC | inconclusive: 4.98% | 
CCOc1ccccc1NC(=O)c1nc2nc(C)cc(C(F)F)n2n1 | inactive | 
Cc1ccc(/C=C/C(=O)NCCCc2ccccc2)cc1 |  | inconclusive: 35.5 µM [falling, single point]
CC1CCN(CC(=O)Nc2ccc(N3CCCCCC3)cc2)CC1 | inconclusive: -3.5% [at 46 µM] | 
COc1ccc(-n2nnc3c(=O)n(CC(=O)N4CCCc5ccccc54)cnc32)cc1 | inactive | 
Cc1cccc2c1N(CCOc1ccccc1Cl)C(=O)C2=O | inactive | 
CN(Cc1ccccc1)Cc1nc2c(c(=O)n(C)c(=O)n2C)n1CCCc1ccccc1 | inactive | 
CC(NC(=O)Nc1ccc(Cl)c(Cl)c1)C(c1ccccc1)N1CCOCC1 (stereo unspecified) | inconclusive: -30.7% | 
Cc1ccc(Cl)cc1N1CCN(C(=O)c2cc3c(=O)[nH]c4ccccc4c3n2C)CC1 | inconclusive: -18.1% | 
CCS(=O)(=O)n1nc(-c2ccc(Cl)cc2)nc1SC | inactive | 
COc1ccccc1NC(=S)N(Cc1ccc(C(=O)O)cc1)Cc1ccc(OC)c(OC)c1 | inactive | 
O=C(Nc1ccc(F)c(Cl)c1)c1ccc2c(=O)n3c(nc2c1)CCCCC3 |  | inconclusive: 3.98 µM [fluorescent, full curve, poor fit]
Cc1ccc(-n2c(SCC(=O)NCc3ccco3)nc3sc(C)c(C)c3c2=O)cc1 | inactive | 
CCCC1(c2ccccc2)NC(=O)N(CCN2C(=O)c3ccccc3C2=O)C1=O (stereo unspecified) | inconclusive: 26.3% | 
CC(C)N(CCC(=O)c1ccc2ccccc2c1)Cc1ccccc1 |  | inconclusive: 3.55 µM [cytotoxic, full curve]
Cc1ccc(NC(=S)Nc2ccc(C(C)C)cc2)cc1S(=O)(=O)N1CCCCCC1 |  | inconclusive: 11.2 µM [fluorescent, partial curve]
Cc1ccc(Nc2nnc(SCc3nc4ccccc4c(=O)[nH]3)s2)cc1 | inconclusive: 28.7% [at 46 µM] | 
Cc1ccccc1N1CCN(c2ncnc3c2cnn3Cc2ccc(Cl)cc2)CC1 |  | inconclusive: 11.2 µM [falling, single point]
COC(=O)CN1C(=O)C(O)(CC(=O)c2cccc(Br)c2)c2ccccc21 (stereo unspecified) | inactive | 
Cc1csc(SCC(=O)Nc2ccc(S(=O)(=O)N3CCCC3)cc2)n1 | inconclusive: 5.53% | 
C=CCNC(=S)N/N=C(\C)c1ccccn1 | inconclusive: -25.5% | 

Structure (SMILES) | ratio change, negative = inhibition | Potency
Cc1cc(N/N=C/c2ccccc2Cl)nc(NCc2ccccc2)n1 |  | inconclusive: 35.5 µM [fluorescent, single point]
CCOC(=O)c1sc2nc3c(cc2c1N)C(=O)CC(C)(C)C3 | inactive | 
COc1ccc(S(=O)(=O)N(C(C)=O)c2ccc(OC(C)=O)c3ccccc23)cc1[N+](=O)[O-] | inconclusive: -27.7% | 
NC(=O)c1ccc(C(F)(F)F)n(Cc2ccccc2Cl)c1=O | inconclusive: 9.4% | 
CCOc1ccc(Nc2cc(C)nc(-n3nc(C)cc3C)n2)cc1 | inconclusive: -30.5% | 
O=C(Cn1nnc(-c2ccccc2NC(=O)c2ccccc2)n1)Nc1ccc2c(c1)OCCO2 | inactive | 
Cc1cc(C(=O)COC(=O)c2nccnc2N)c(C)n1C | inconclusive: 18.6% [at 46 µM] | 
O=C(Nc1c2c(nn1-c1ccc(Cl)cc1)CS(=O)(=O)C2)c1ccccc1F | inactive | 
Nn1cnc2c(c1=O)C1(CCCCC1)Cc1ccccc1-2 | inconclusive: -26.8% | 
CCOC(=O)C1(CC)NC(c2ccco2)C2C(=O)N(CC)C(=O)C21 (stereo unspecified) | inactive | 
Cc1cccc(C(=O)N[C@H](C(=O)Nc2nc3ccc(S(C)(=O)=O)cc3s2)C(C)C)c1 | inconclusive: -24.9% [at 46 µM] | 
COc1ccccc1-c1cc(C(F)(F)F)nc(S(C)(=O)=O)n1 |  | inconclusive: 22.4 µM [rising, single point]
O=C(c1cc(-c2ccc(Cl)c(Cl)c2)on1)N1CCCCC1 | inactive | 
Cc1oc(CC(C)C)cc1C(=O)Nc1ccc(C(=O)O)cc1 | inconclusive: 23.4% | 
Cc1nn(-c2ccccc2)c(C)c1C(=O)OCC(=O)NC(=O)NC1CCCC1 | inactive | 
c1ccc2c(N3CCOCC3)nc(-c3ccoc3)nc2c1 | inconclusive: -16.4% | 
Cc1ccc(-n2ncc3c(Nc4ccccc4C)ncnc32)cc1 |  | inconclusive: 7.94 µM [inhibitor, partial curve, poor fit]
CCOc1ccc(CCNC(=O)c2cc3sccc3n2C)cc1OCC |  | inconclusive: 14.1 µM [falling, single point]
COc1ccc(C(=O)/C=C2\NCC3c4ccccc4CCN3C2=O)cc1 (stereo unspecified) | inactive | 
CS(=O)(=O)c1nc(-c2ccc(Br)cc2)cc(-c2ccccc2)c1C#N |  | inconclusive: 7.08 µM [inhibitor, partial curve]
CCc1nc(N=C(N)N)nc2ccccc12 | inconclusive: -1.53% [at 9.22 µM] | 

Of the compounds above, these contain a halogen.
Structure (SMILES) | ratio change, negative = inhibition | Potency
Cc1cccc2cc(CNC3CCCC3)c(Cl)nc12 | inactive | 
CNC(CC(=O)c1ccc([N+](=O)[O-])cc1)C(Cl)(Cl)Cl (stereo unspecified) | inconclusive: -7.43% | 
O=C(N/N=C/C(Cl)=C/c1ccccc1)c1cnccn1 | inconclusive: 0.111% | 
Cc1ccccc1NC(=O)c1c(C)nn(-c2ccccc2)c1Cl | inconclusive: -12.8% | 
COc1cccc(-n2nnc3c(=O)n(Cc4cccc(F)c4)cnc32)c1 | inactive | 
COc1ccc(NC(=O)c2sc3nc4n(c(=O)c3c2C)CCC4)cc1Cl | inconclusive: 13.6% [at 46 µM] | 
Cc1ccc2scc(N3CCN(c4ccc(F)cc4)CC3)c(=O)c2c1 | inconclusive: -39.1% [at 46 µM] | 
O=C(NCc1ccc(Cl)cc1)c1cnc2sc(N3CCCC3)nn2c1=O | inconclusive: 21.8% [at 46 µM] | 
Cc1ccc(Cl)cc1NC(=S)N(Cc1ccccc1)Cc1cccnc1 | inconclusive: -22.6% [at 46 µM] | 
CCOc1ccccc1NC(=O)c1nc2nc(C)cc(C(F)F)n2n1 | inactive | 
Cc1cccc2c1N(CCOc1ccccc1Cl)C(=O)C2=O | inactive | 
CC(NC(=O)Nc1ccc(Cl)c(Cl)c1)C(c1ccccc1)N1CCOCC1 (stereo unspecified) | inconclusive: -30.7% | 
Cc1ccc(Cl)cc1N1CCN(C(=O)c2cc3c(=O)[nH]c4ccccc4c3n2C)CC1 | inconclusive: -18.1% | 
CCS(=O)(=O)n1nc(-c2ccc(Cl)cc2)nc1SC | inactive | 
O=C(Nc1ccc(F)c(Cl)c1)c1ccc2c(=O)n3c(nc2c1)CCCCC3 |  | inconclusive: 3.98 µM [fluorescent, full curve, poor fit]
Cc1ccccc1N1CCN(c2ncnc3c2cnn3Cc2ccc(Cl)cc2)CC1 |  | inconclusive: 11.2 µM [falling, single point]
COC(=O)CN1C(=O)C(O)(CC(=O)c2cccc(Br)c2)c2ccccc21 (stereo unspecified) | inactive | 
Cc1cc(N/N=C/c2ccccc2Cl)nc(NCc2ccccc2)n1 |  | inconclusive: 35.5 µM [fluorescent, single point]
NC(=O)c1ccc(C(F)(F)F)n(Cc2ccccc2Cl)c1=O | inconclusive: 9.4% | 
O=C(Nc1c2c(nn1-c1ccc(Cl)cc1)CS(=O)(=O)C2)c1ccccc1F | inactive | 
COc1ccccc1-c1cc(C(F)(F)F)nc(S(C)(=O)=O)n1 |  | inconclusive: 22.4 µM [rising, single point]
O=C(c1cc(-c2ccc(Cl)c(Cl)c2)on1)N1CCCCC1 | inactive | 
CS(=O)(=O)c1nc(-c2ccc(Br)cc2)cc(-c2ccccc2)c1C#N |  | inconclusive: 7.08 µM [inhibitor, partial curve]

More structures:

Structure (SMILES) | ratio change, negative = inhibition | Potency
CCOc1ccc(S(=O)(=O)NN)cc1 | inactive | 
Cc1cccc([N+](=O)[O-])c1NC(=O)CN(Cc1ccccc1)Cc1ccccc1 | inactive | 
CCOc1ccc(NS(=O)(=O)c2ccc3[nH]c(=O)cc(C(=O)O)c3c2)cc1 | inconclusive: 14.9% [at 46 µM] | 
COC(=O)CCCC1=CC2=C(c3ccccc3)C(=O)C(C)(OC(=O)C3CCCC3)C(=O)C2=CN1C1CC1 (stereo unspecified) | inconclusive: 5.09% [at 9.22 µM] | 
CCCCN(C(=S)NC(=O)c1ccccc1)c1c(N)n(Cc2ccccc2)c(=O)[nH]c1=O | inactive | 
CCSC1=C(C#N)C(c2ccc3c(c2)OCO3)C2=C(CCCC2=O)N1 (stereo unspecified) | inactive | 
CC1CCc2c(C(=O)OCC(=O)Nc3cccc(S(=O)(=O)N4CCCCCC4)c3)csc2C1 (stereo unspecified) |  | inconclusive: 35.5 µM [fluorescent, single point]
CC(C)(C)c1cc(C(C)(C)C)cc(S(=O)(=O)CCc2ccccn2)c1 | inconclusive: 6.14% | 
CCOC(=O)c1c(C)oc2nc(C)nc(NCc3ccc(OC)cc3)c12 | inactive | 
CCc1ccc(N2C(=O)N(CC(=O)C(C)(C)C)c3ccccc3S2(=O)=O)cc1 | inactive | 
O=C(CNC(=O)c1cccc(F)c1)N/N=C/c1cccc([N+](=O)[O-])c1 | inconclusive: 9.17% | 
O=C(CSc1ccc(Cl)cc1)Nc1ccccc1N1CCN(C(=O)c2ccccc2)CC1 | inconclusive: -12.2% | 
CCOC(=O)N1CCC(NC(=S)Nc2ccc3nc(N4CCN(C)CC4)cc(C)c3c2)CC1 | inconclusive: -16% [at 46 µM] | 
CCOc1ccc(N2C(=O)C3C(C2=O)C3(c2ccccc2)c2ccccc2)cc1 (stereo unspecified) |  | inconclusive: 22.4 µM [fluorescent, single point]
COc1ccc(/C=C/C(=O)c2cc(F)ccc2OC(=O)c2ccc(OC)c(OC)c2)cc1OC | inconclusive: -21.1% | 
Cc1ccc(S(=O)(=O)N2CCN(c3nc(C)c4c(c3C#N)CC(C)(C)OC4)CC2)cc1 |  | inconclusive: 35.5 µM [fluorescent, single point]
Cn1c(-c2ccc(F)cc2)cnc1NCc1ccc(C#N)cc1 | inactive | 
COc1ccc(-c2noc(CN(C)S(=O)(=O)c3ccc(Cl)cc3)n2)cc1OC |  | inconclusive: 35.5 µM [falling, single point]

Reference: PubChem BioAssay AID1487 (National Center for Advancing Translational Sciences (NCATS), 2009)
